The list is a part of this screen's results and no random one: it is rich in T/C values a quarter to a half above the control, in often repeated tests (any T/C) and in doses without a T/C. Other doses and runs of a compound stand elsewhere. T/C: endpoint of the treated group in % of that of the vehicle group. Some doses have a count of surviving animals in place of a T/C: the source files T/C as zero there, which appears to mark a toxic dose or a test without result, not a measured value. Some survivor counts are full or nearly so, which does not show that the dose was tolerated: the source hardly ever lists a survival T/C far under the control, and the zero likely stands for such cases as well. Counts of survivors are from the toxicity check (mostly the fifth day) where no day follows; animals may have died later. Schedule codes are those of the source, taken here to give the interval after Q, in days (D) or hours (H), and the number of doses after X. Some doses were run more than once; their values stand side by side, smallest first. Brackets with × say how often a value occurs here. Where survival is the endpoint, the PubChem record calls one and a half times the control and up active, and a quarter to a half above the control has no call in these data; cut-offs in other NCI protocols can differ. Some T/C values are followed by the survivors on the day toxicity was checked, most often the fifth; where none is given, no animal had died by that day.
Tested on: P388 leukemia ip, CD2F1 mice, survival T/C
Assay: NCI In Vivo Anticancer Drug Screen. Data for tumor model P388 Leukemia (intraperitoneal) in CD2F1 (CDF1) mice
Conditions: T/C endpoint: median survival time, higher T/C = longer survival
[1] = dose: 12.5 mg/kg/injection, schedule: Q01DX009 (ip), vehicle: saline
[2] = dose: 25.0 mg/kg/injection, schedule: Q01DX009 (ip), vehicle: saline
[3] = dose: 50.0 mg/kg/injection, schedule: Q01DX009 (ip), vehicle: saline
[4] = dose: 200.0 mg/kg/injection, schedule: Q01DX005 (ip), vehicle: saline
[5] = dose: 200.0 mg/kg/injection, schedule: Q01DX009 (ip), vehicle: saline
[6] = dose: 300.0 mg/kg/injection, schedule: Q01DX009 (ip), vehicle: saline
[7] = dose: 50.0 mg/kg/injection, schedule: Q01DX009 (ip), vehicle: saline with Tween-80
[8] = dose: 100.0 mg/kg/injection, schedule: Q01DX009 (ip), vehicle: saline with Tween-80
[9] = dose: 200.0 mg/kg/injection, schedule: Q01DX009 (ip), vehicle: saline with Tween-80
[10] = dose: 100.0 mg/kg/injection, schedule: Q01DX009 (ip), vehicle: saline
[11] = dose: 400.0 mg/kg/injection, schedule: Q01DX009 (ip), vehicle: saline
[12] = dose: 100.0 mg/kg/injection, schedule: Q01DX005 (ip), vehicle: Klucel (hydroxypropylcellulose) (HPC)
[13] = dose: 200.0 mg/kg/injection, schedule: Q01DX005 (ip), vehicle: Klucel (hydroxypropylcellulose) (HPC)

O=NNc1ccc(Sc2ccc3ccccc3c2)cn1
T/C [1]: 135 % of control
survivor count [2]: 6 of 6
survivor count [3]: 2 of 6

CCN(CC)CCOC(=O)Cc1cccc2c(=O)cc(-c3ccccc3)oc12
T/C (dose: 50.0 mg/kg/injection, schedule: Q01DX009 (ip), vehicle: saline, evaluated on day 20): 106 % of control
T/C (dose: 50.0 mg/kg/injection, schedule: Q01DX009 (ip), vehicle: saline, evaluated on day 30): 96 and 113 % of control
T/C (dose: 50.0 mg/kg/injection, schedule: Q01DX009 (ip), vehicle: saline, evaluated on day 60): 99 % of control
T/C (dose: 100.0 mg/kg/injection, schedule: Q01DX009 (ip), vehicle: saline, evaluated on day 20): 117 % of control
T/C (dose: 100.0 mg/kg/injection, schedule: Q01DX009 (ip), vehicle: saline, evaluated on day 30): 111 and 138 % of control
T/C (dose: 100.0 mg/kg/injection, schedule: Q01DX009 (ip), vehicle: saline, evaluated on day 60): 118 % of control
T/C [4]: 131 % of control
T/C [5]: 194 % of control
survivor count [5]: 2 of 6 (2×) and 9 of 10
T/C (dose: 200.0 mg/kg/injection, schedule: Q04DX003 (ip), vehicle: saline): 131 % of control [9 of 10 alive]
survivor count (dose: 300.0 mg/kg/injection, schedule: Q01DX005 (ip), vehicle: saline): 1 of 10
survivor count [6]: 1 of 10
survivor count (dose: 300.0 mg/kg/injection, schedule: Q04DX003 (ip), vehicle: saline): 3 of 10

Cc1cc2nc3n(c2cc1C)C(=O)c1cc2ccccc2cc1-3
survivor count (dose: 12.5 mg/kg/injection, schedule: Q01DX009 (ip), vehicle: saline with Tween-80): 6 of 6
survivor count [7]: 6 of 6
survivor count [8]: 6 of 6
survivor count [9]: 6 of 6

CCOCCOCCOC12C(=O)C(Cl)=C(Cl)C(=O)C13C1CC2C(Cl)C13 (configuration not stated)
survivor count [10]: 1 of 6
survivor count [5]: 0 of 6

CNC(=O)OCc1c2ccncc2c(C)c2c1[nH]c1ccccc12
T/C (dose: 12.5 mg/kg/injection, schedule: Q04DX002 (ip), vehicle: saline with Tween-80): 145 % of control
survivor count (dose: 50.0 mg/kg/injection, schedule: Q04DX002 (ip), vehicle: saline with Tween-80): 6 of 6
survivor count (dose: 100.0 mg/kg/injection, schedule: Q04DX002 (ip), vehicle: saline with Tween-80): 6 of 6

O=C(O)/C(Cl)=C(/Cl)C(=O)C(Cl)(Cl)Cl
T/C (dose: 6.25 mg/kg/injection, schedule: Q01DX009 (ip), vehicle: distilled water + Tween-80): 130 % of control
T/C (dose: 12.5 mg/kg/injection, schedule: Q01DX009 (ip), vehicle: distilled water + Tween-80): 135 and 139 % of control
T/C (dose: 25.0 mg/kg/injection, schedule: Q01DX009 (ip), vehicle: distilled water + Tween-80): 141 % of control
survivor count (dose: 50.0 mg/kg/injection, schedule: Q01DX009 (ip), vehicle: distilled water + Tween-80): 3 of 6
survivor count (dose: 100.0 mg/kg/injection, schedule: Q01DX009 (ip), vehicle: distilled water + Tween-80): 3 of 6
survivor count (dose: 200.0 mg/kg/injection, schedule: Q01DX009 (ip), vehicle: distilled water + Tween-80): 1 of 6

O=C1C=CC(=O)O1 (tested in a mixture with another compound)
T/C [1]: 131 % of control
T/C [2]: 135 and 147 % of control
T/C [3]: 131 and 145 % of control
T/C (dose: 50.0 mg/kg/injection, schedule: Q04DX003 (ip), vehicle: saline): 130 % of control
T/C (dose: 75.0 mg/kg/injection, schedule: Q01DX009 (ip), vehicle: saline): 140 % of control
T/C [10]: 137, 138, 148 % of control
T/C (dose: 100.0 mg/kg/injection, schedule: Q04DX003 (ip), vehicle: saline): 140 % of control
T/C [5]: 138 % of control
survivor count [6]: 1 of 6
T/C [11]: 132 [5 of 6 alive] and 135 % of control
survivor count [11]: 2 of 6

CCN(CC)C(=O)C(N)Cc1ccc(OC)c(N(CCCl)CCCl)c1 (configuration not stated)
T/C [1]: 132 % of control
T/C (dose: 12.5 mg/kg/injection, schedule: Q01DX009 (ip), vehicle: suspension in saline): 132 % of control [5 of 6 alive]

CC1=C(C(=O)Nc2ccc(C)cc2C)C(c2cccc([N+](=O)[O-])c2)C(C(=O)Nc2ccc(C)cc2C)=C(C)N1
survivor count (dose: 60.0 mg/kg/injection, schedule: Q01DX005 (ip), vehicle: Klucel (hydroxypropylcellulose) (HPC)): 6 of 6
survivor count (dose: 120.0 mg/kg/injection, schedule: Q01DX005 (ip), vehicle: Klucel (hydroxypropylcellulose) (HPC)): 6 of 6
survivor count (dose: 240.0 mg/kg/injection, schedule: Q01DX005 (ip), vehicle: Klucel (hydroxypropylcellulose) (HPC)): 6 of 6

C#CCNC1=C(C)C(=O)C2=C(C1=O)[C@H](COC(N)=O)[C@]1(OC)[C@@H]3N[C@@H]3CN21
T/C (dose: 3.0 mg/kg/injection, schedule: Q01DX001 (ip), vehicle: distilled water + Tween-80): 129 % of control
T/C (dose: 6.0 mg/kg/injection, schedule: Q01DX001 (ip), vehicle: distilled water + Tween-80): 135 % of control
T/C (dose: 12.0 mg/kg/injection, schedule: Q01DX001 (ip), vehicle: distilled water + Tween-80): 145 % of control
T/C (dose: 24.0 mg/kg/injection, schedule: Q01DX001 (ip), vehicle: distilled water + Tween-80): 129 % of control [5 of 6 alive]

O=C1OC2=C(CCCCC2)C(N2CCCCC2)C12SCCCS2 (configuration not stated)
T/C (dose: 100.0 mg/kg/injection, schedule: Q04DX003 (ip), vehicle: saline with Tween-80): 131 % of control

CCC[P+](CCC)(CCC)CCCCCCCCCC[P+](CCC)(CCC)CCC
survivor count (dose: 3.12 mg/kg/injection, schedule: Q01DX009 (ip), vehicle: saline): 0 of 6
survivor count (dose: 6.25 mg/kg/injection, schedule: Q01DX009 (ip), vehicle: saline): 0 of 6
survivor count [1]: 0 of 6
survivor count [3]: 0 of 6
survivor count [10]: 0 of 6
survivor count [5]: 0 of 6

CCOC(=O)C1C(C)=CC2=Nc3ccccc3NC(=O)C2C1c1ccccc1 (configuration not stated)
survivor count [12]: 0 of 6

Cc1cc(C(O)(C(F)(F)F)C(F)(F)F)c(N)c(C(O)(C(F)(F)F)C(F)(F)F)c1
survivor count [13]: 0 of 6

CCCCN(CCCC)CC(O)c1c(Oc2ccccc2)c2ccccc2c2ccccc12 (configuration not stated)
survivor count (dose: 25.0 mg/kg/injection, schedule: Q01DX009 (ip), vehicle: saline with Tween-80): 6 of 6
survivor count [7]: 5 of 6
survivor count [8]: 6 of 6

Nc1nc(N)c(CCc2ccccc2)c(N)n1
survivor count [12]: 0 of 5
survivor count [13]: 0 of 5

CCNc1ncc2c(n1)N(CC)C(=O)/C(=C\C(=O)OC)N2
survivor count (dose: 75.0 mg/kg/injection, schedule: Q01DX009 (ip), vehicle: saline with Tween-80): 6 of 6

COc1cc(/C=C/C(=O)NCCc2c[nH]c3ccc(O)cc23)ccc1O
survivor count [12]: 6 of 6

CCC(CC)NCCCNc1cc(OC)cc2cccnc12
survivor count (dose: 50.0 mg/kg/injection, schedule: Q01DX005 (ip), vehicle: saline): 3 of 6
survivor count (dose: 100.0 mg/kg/injection, schedule: Q01DX005 (ip), vehicle: saline): 0 of 6
survivor count [4]: 0 of 6

Cc1c([N+](=O)[O-])oc2c1C(=O)N([N+](=O)[O-])CCC2
survivor count (dose: 200.0 mg/kg/injection, schedule: Q04DX003 (ip), vehicle: Klucel (hydroxypropylcellulose) (HPC)): 2 of 6
survivor count (dose: 400.0 mg/kg/injection, schedule: Q04DX003 (ip), vehicle: Klucel (hydroxypropylcellulose) (HPC)): 0 of 6

CCOC(=O)SC(=S)OCC
survivor count [7]: 5 of 6
survivor count [8]: 0 of 6
survivor count [9]: 0 of 6
survivor count (dose: 400.0 mg/kg/injection, schedule: Q01DX009 (ip), vehicle: saline with Tween-80): 0 of 6

O=[N+]([O-])c1cccc(OCCOc2ccccc2)c1
survivor count (dose: 400.0 mg/kg/injection, schedule: Q01DX009 (ip), vehicle: other): 3 of 6
